# Results of single-concentration screens

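Whole-cell growth test on Mycobacterium tuberculosis, read after 3 days in glucose-containing 7H9 medium; the read-out is not stated. Concentration: 500 µM. The record gives no direction; compounds that gave an IC50 in retests scored well above the rest, so higher reads as more growth inhibition. Size under these conditions: about 18,000 compounds, about 1,400 of them at 50% or above in at least one test.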

Each number is a percent effect as filed.
The record does not define 0% and 100%; most values in the screen are far below 50% and negative numbers occur (in some assays of this library far below -100).
The compounds are a random part of those screened.

structure | percent effect
CC1(CCNC(=O)c2ccon2)OCCO1 | -6.418%
C[C@@H]1CN(C(=O)c2ccccc2C#N)C[C@]1(C)O | -11.13%
Cc1cccnc1CN(C)Cc1nccn1C | 32.99%
Cc1cccc(-c2ccnc(N)n2)c1 | -5.096%
CN1CN(C(=O)c2ccccc2)CC1=O | 1.778%
Cc1ccc(CN(CCO)C(=O)c2cc[nH]n2)cc1 | 11.22%
COCCn1ccnc1CN1CCC(C#N)CC1 | -7.455%
CN(Cc1ccco1)C(=O)CN1CCc2sccc2C1 | 62.98%
CNC(=O)CSc1nc(C)nc(C)c1C#N | -5.532%
O=C(Nc1cccc(OCC(F)F)n1)NC1CC1 | -5.899%
CN(C)[C@@H]1CN(C(=O)c2ccnc(O)c2)C[C@H]1CO | 3.746%
COC(C)C(=O)OCCn1nc2ccccn2c1=O (centres undefined) | -2.183%
O=C(CN1CCn2ccnc2C1)NCc1ccco1 | -3.422%
NS(=O)(=O)NC(c1cc(F)ccc1F)C1CC1 (centres undefined) | 11.53%
Cc1nccn1CCN(C)CC(=O)Nc1ccn(C)n1 | -2.692%
Cn1nccc1C(=O)N1CCC(Oc2ccccc2)C1 (centres undefined) | 51.6%
CN(C(=O)NC1CCN(C2CC2)CC1)C1CC1 | -12.44%
CNC(=O)NC(=O)CSc1ccccc1F | 51.51%
Cc1ccnc(CN)n1 | 7.061%
NCCOCCS(N)(=O)=O | -5.63%
Cn1cc(CC(CN)CO)cn1 (centres undefined) | -10.41%
OCCOC1CCCN(c2nc3ccccc3[nH]2)C1 (centres undefined) | 24.56%
O=C(CCN1CCC[C@H]1CO)N1CCc2ccccc21 | 4.499%
COC1CCN(C(=O)c2cccc(F)c2C)C1 (centres undefined) | -7.154%
Cc1cnn(-c2ccc(C(C)N)cc2F)c1 (centres undefined) | -1.548%
CCNc1ncc(C(=O)N2CCCO2)s1 | -1.812%
NCc1nc2c(s1)CCCC2 | 14.55%
CCN1CCCC1CNC(=O)c1ccc(C#N)cc1 (centres undefined) | 15.16%
CC[C@H](O)CN(CCNC(C)=O)C(C)C | 6.521%
CN1N=C(C(=O)NC2(C)CCS(=O)(=O)C2)CCC1=O (centres undefined) | -17.22%
Cc1cc(C)n(CC(C)CNC(=O)CCCN(C)C)n1 (centres undefined) | 8.205%
Cc1ccc(CNC(=O)NCC(C)(C)CC(C)O)cn1 (centres undefined) | 14.23%
CC1CCCCN1CC(=O)NC1(C#N)CCCC1 (centres undefined) | -0.8095%
CCCn1c(O)nnc1SCc1cccnc1 | 26.8%
CCOCC(=O)N(C)Cc1cccc2cnccc12 | 24.46%
CNC(=O)Cn1cnc(N)n1 | -7.458%
C1CC(COCCc2noc(C3CNC3)n2)CCO1 | 90.26%
CCC(=O)N1CCC(CCCN2CCOCC2)CC1 | -0.7909%
Fc1cccnc1N1CCNCC1 | 16.02%
CN1CCN(CCOc2ccc(C#N)cc2)CC1 | 22.01%
OCc1ccccc1OCCn1ccnc1 | 39.99%
Cc1ccccc1C(C)NC(=O)Cn1ccccc1=O (centres undefined) | 6.864%
CC1(C)OCCC1CN (centres undefined) | -0.277%
CC1(CO)CCCN1 (centres undefined) | 4.146%
CCOC(=O)NC1CCC(NC(=O)c2ccco2)CC1 (centres undefined) | 34.61%
CN(C)C(=O)OC1CCNCC1 | -4.282%
c1ccc(COCc2nc(C3CCCCN3)no2)cc1 (centres undefined) | 38.7%
CCC(N)c1ccccc1OC (centres undefined) | 50.19%
CC(c1cccc(Br)c1)N1CCNC(=O)CC1 (centres undefined) | 42.54%
CN(Cc1ccc(Oc2ccccc2)cc1)C(=O)CN | 96.77%
O=C(NCC(O)CO)Nc1ccccc1CC(F)(F)F (centres undefined) | 6.897%
CN1CC(NC(=O)NCCc2cccs2)CC1=O (centres undefined) | -6.486%
CN(Cc1ccncc1)C(=O)CN | 7.392%
N#Cc1cc(Cl)ccc1N1CCN(CCO)CC1 | 0.05924%
CCOCC(=O)Nc1ccc(OC)c(-n2cnnn2)c1 | 35.76%
Cc1cccc2nc(CN(C)CC(O)CO)[nH]c12 (centres undefined) | 13.4%
CC(C)NC(=O)CCN1CCC(CN2CCCC2)CC1 | 3.164%
O=C1CCC(C(=O)NCC(CO)Cc2cccs2)=NN1 (centres undefined) | 17.26%
CN(C)S(=O)(=O)CC(=O)NC1CCN(CC2CC2)C1 (centres undefined) | -8.332%
COCCNCCNC(=O)c1ccc(Cl)c(C)c1 | 48.74%
CCCC(C)C(=O)N1CCOCC1 (centres undefined) | -0.6689%
CN(C)[C@@H]1CN(C(=O)C2CC=CC2)C[C@H]1CO | -13.32%
O=C(NCC1CCN(C2CC2)C1)c1ccccn1 (centres undefined) | 45.57%
Cc1cc(CC(=O)Nc2ncccc2Br)no1 | 7.773%
CCN(Cc1ccc(F)c(F)c1)[C@H]1COC[C@@H]1O | 17.65%
O=C(NCc1nnc2ccccn12)C1CCOCC1 | -8%
COCC1CCN(Cc2ccc(NC(C)=O)cc2)C1 (centres undefined) | -13.22%
COC(C)(CNC(=O)[C@H]1CCCO1)C1CC1 (some centres undefined) | 7.419%
OC(CNc1ncnc2ncccc12)C1CCCC1 (centres undefined) | 28.07%
O=c1c2cccc(F)c2ncn1CCOCCO | 7.404%
CNC1CCN(CC(=O)N2CCN(C)CC2)CC1 | 1.111%
COc1ccc(CCN)cc1S(N)(=O)=O | 15.92%
CCn1ccc(C(=O)N(C)Cc2cccnc2OC)n1 | 60.43%
COC(=O)Nc1ccc(C(=O)N2CCCC2)cc1 | -13.76%
COc1cc(F)c(CN2CCOCC2CO)c(F)c1 (centres undefined) | 31.63%
CC(CNC(=O)c1nccnc1N)Cn1ccnc1 (centres undefined) | 24.17%
Cc1nn(CCNCCS(C)(=O)=O)c(C)c1Br | 8.548%
CCNC(=O)c1cc(S(=O)(=O)NC(C)C)cn1C | -0.7026%

7 of the entries, repeated:

structure	percent effect
NCc1nc2c(s1)CCCC2	14.55%
CN(C)[C@@H]1CN(C(=O)C2CC=CC2)C[C@H]1CO	-13.32%
Cn1cc(CC(CN)CO)cn1 (centres undefined)	-10.41%
Cc1cccnc1CN(C)Cc1nccn1C	32.99%
COCC1CCN(Cc2ccc(NC(C)=O)cc2)C1 (centres undefined)	-13.22%
CN(C)C(=O)OC1CCNCC1	-4.282%
CC(c1cccc(Br)c1)N1CCNC(=O)CC1 (centres undefined)	42.54%

Source: ChEMBL document CHEMBL3988442, “University of Dundee, Small-Polar-MMV Screening Library” (2021).